These are yes or no findings as the source states them, for the method shown.
Legend:
[1] = biological target: T1, Phospholipase C-γ1 (PLC-γ1), 1–1219 (UniProt P19174 1-1219); experiment: ITC; VP-ITC or PEAQ-ITC; 20 mM Hepes pH 7.4, 100 mM NaCl, 0.1 mM DTT, 5 °C; 4 µM in the cell, 40 µM in the syringe; fit to a single binding site with 1:1 stoichiometry; both purified
T1 sequence (looked up): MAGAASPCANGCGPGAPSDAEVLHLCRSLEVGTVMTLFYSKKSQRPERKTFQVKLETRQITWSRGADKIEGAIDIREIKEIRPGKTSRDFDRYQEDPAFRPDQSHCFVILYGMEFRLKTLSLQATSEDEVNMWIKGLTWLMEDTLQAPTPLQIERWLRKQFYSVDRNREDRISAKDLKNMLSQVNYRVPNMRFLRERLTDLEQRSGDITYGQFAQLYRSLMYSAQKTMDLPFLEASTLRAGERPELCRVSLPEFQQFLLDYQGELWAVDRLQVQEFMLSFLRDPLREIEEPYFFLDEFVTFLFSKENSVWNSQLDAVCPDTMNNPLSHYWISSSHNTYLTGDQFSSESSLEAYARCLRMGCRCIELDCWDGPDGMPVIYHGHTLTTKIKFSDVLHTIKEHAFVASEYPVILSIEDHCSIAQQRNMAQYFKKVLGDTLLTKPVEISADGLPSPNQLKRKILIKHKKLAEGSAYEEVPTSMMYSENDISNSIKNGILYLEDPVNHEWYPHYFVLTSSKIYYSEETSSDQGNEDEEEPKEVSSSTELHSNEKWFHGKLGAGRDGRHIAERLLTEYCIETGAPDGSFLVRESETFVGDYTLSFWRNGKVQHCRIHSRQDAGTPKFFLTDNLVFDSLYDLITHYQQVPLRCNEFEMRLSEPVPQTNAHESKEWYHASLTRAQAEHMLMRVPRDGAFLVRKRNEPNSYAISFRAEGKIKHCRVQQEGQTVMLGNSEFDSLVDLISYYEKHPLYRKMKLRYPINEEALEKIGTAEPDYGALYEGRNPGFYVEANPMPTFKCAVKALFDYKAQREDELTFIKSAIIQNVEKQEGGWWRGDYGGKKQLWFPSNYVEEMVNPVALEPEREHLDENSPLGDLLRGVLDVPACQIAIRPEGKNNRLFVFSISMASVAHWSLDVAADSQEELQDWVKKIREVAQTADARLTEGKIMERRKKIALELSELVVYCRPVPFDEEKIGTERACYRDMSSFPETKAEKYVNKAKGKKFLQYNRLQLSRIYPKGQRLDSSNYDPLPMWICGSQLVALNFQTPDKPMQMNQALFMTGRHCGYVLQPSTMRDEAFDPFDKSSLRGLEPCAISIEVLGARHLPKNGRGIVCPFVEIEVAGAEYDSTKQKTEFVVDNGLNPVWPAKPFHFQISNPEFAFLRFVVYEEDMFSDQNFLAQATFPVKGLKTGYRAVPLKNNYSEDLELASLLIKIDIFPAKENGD

Amino acid sequences for entries named in this document (tags omitted). A change or cut given only in a name is not applied to a line headed by its entry.
UniProt Q13094: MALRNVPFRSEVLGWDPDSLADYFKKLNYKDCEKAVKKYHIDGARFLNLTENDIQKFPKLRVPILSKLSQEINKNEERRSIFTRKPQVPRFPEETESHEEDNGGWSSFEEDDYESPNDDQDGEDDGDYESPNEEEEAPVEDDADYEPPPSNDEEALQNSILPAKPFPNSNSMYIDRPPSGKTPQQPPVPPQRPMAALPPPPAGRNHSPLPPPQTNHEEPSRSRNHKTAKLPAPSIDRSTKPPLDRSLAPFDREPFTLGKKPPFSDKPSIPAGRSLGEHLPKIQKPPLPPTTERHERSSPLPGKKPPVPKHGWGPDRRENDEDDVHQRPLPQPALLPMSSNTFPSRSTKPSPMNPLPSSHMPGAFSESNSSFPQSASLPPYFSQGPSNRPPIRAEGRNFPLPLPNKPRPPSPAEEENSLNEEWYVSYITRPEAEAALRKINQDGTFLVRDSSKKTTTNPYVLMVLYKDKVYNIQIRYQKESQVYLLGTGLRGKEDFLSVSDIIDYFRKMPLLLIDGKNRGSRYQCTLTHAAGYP

[2] = biological target: full-length mouse ITK with C96E/T110I mutations (His6-3C-Halo-tev-ITK(C96E/T110I)-FLAG) (mouse); experiment: as above

## SLP-76^NA polypeptide (aa 103–258, no affinity mutant) (from UniProt Q13094) (domain or fragment)
[1]
  binding: no binding (tested: 4 µM in the cell, 40 µM in the syringe)

B1: SLP-76 PRR peptide (aa 185–200), wild type (peptide, UniProt Q13094 185-200, looked up)
peptide: QPPVPPQRPMAALPPP
notes: also called SLP-76 185–200 (WT); SLP-76 PRR_(185–200) peptide
[2]
  binding: no binding (tested: 4 µM in the cell, 40 µM in the syringe)

Source: PMC13522589, “Weak SLP-76/PLC-γ1 interaction fine-tunes T cell receptor signal strength to optimize T cell responsiveness” (Nature Communications, 2026)
